Measurements from publication PMC5809613.
These are yes or no findings as the source states them, for the method shown. In cells and extracts the contact can be indirect. These calls come from enrichment with a bait or labelling near it, and not all partners need be listed.

Amino acid sequences for entries named in this document (tags omitted).
UniProt P63027: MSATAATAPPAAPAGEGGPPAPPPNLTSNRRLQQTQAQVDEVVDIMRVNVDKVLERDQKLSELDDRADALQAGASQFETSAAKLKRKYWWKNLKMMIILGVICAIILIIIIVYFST
UniProt P60660: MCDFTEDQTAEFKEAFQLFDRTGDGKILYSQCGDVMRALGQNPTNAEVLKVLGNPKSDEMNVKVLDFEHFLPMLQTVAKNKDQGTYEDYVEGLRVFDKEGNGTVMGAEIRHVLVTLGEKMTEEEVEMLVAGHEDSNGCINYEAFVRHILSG

Molecular target: Synaptobrevin/vesicle-associated membrane protein 2 (human (endogenous in submandibular gland)) (UniProt P63027)
Experiment: co-IP + affinity purification with mass spectrometry; lysates of control and transplanted human submandibular glands, precleared with protein A/G-agarose, incubated with anti-VAMP-2 antibody-coated protein A/G overnight at 4°C, washed with lysis buffer; SDS/PAGE, Coomassie-stained bands identified by nano-LC-ESI-MS/MS; band intensities normalized to VAMP-2

| binding | Molecule |
| --- | --- |
| binds | myosin light polypeptide 6 (from UniProt P60660 1-151) |
| binds | myosin regulatory light polypeptide 9 (protein, UniProt P24844 1-172) MSSKRAKAKTTKKRPQRATSNVFAMFDQSQIQEFKEAFNMIDQNRDGFIDKEDLHDMLASLGKNPTDEYLEGMMSEAPGPINFTMFLTMFGEKLNGTDPEDVIRNAFACFDEEASGFIHEDHLRELLTTMGDRFTDEEVDEMYREAPIDKKGNFNYVEFTRILKHGAKDKDD |
